No constants are given. Whether binding was seen depends on the method and setting. Some results given as binding are weak or reduced against the parent protein; the word gives no strength.
What was measured:
[1] = target: Tln1 (mouse) (UniProt P26039); experiment: yeast two-hybrid retest after recloning (URA3 expression, no Cre)
[2] = target: Tln1 (mouse) (UniProt P26039); experiment: yeast two-hybrid, E12.5 bait library x prey library; individual colony PCR and sequencing
[3] = target: Ttll12 (mouse) (UniProt Q3UDE2); experiment: yeast two-hybrid retest
[4] = target: Pcbp3 (mouse) (UniProt P57722); experiment: yeast two-hybrid retest after recloning (URA3 expression, no Cre)
[5] = target: Ttll12 (mouse) (UniProt Q3UDE2); experiment: as above
[6] = target: Tubb5 (mouse) (UniProt P99024); experiment: as above
[7] = target: Pcbp3 (mouse) (UniProt P57722); experiment: yeast two-hybrid, E12.5 bait library x prey library; BI-Tag identification
[8] = target: Tubb5 (mouse) (UniProt P99024); experiment: as above
[9] = target: Pcbp3 (mouse) (UniProt P57722); experiment: yeast two-hybrid, E12.5 bait library x prey library; individual colony PCR and sequencing
[10] = target: Tubb5 (mouse) (UniProt P99024); experiment: as above
[11] = target: Ttll12 (mouse) (UniProt Q3UDE2); experiment: yeast two-hybrid, E12.5 bait library x prey library; individual colony PCR and sequencing (superscript: times found)
[12] = target: Ttll12 (mouse) (UniProt Q3UDE2); experiment: yeast two-hybrid, E12.5 bait library x prey library; BI-Tag identification (superscript: times found, unique junctions)

Protein sequences, listed by entry. Tags and fused reporters are not part of them. Lines headed by an entry give the natural chain unless they say otherwise; changes in a name come on top.
UniProt P26039: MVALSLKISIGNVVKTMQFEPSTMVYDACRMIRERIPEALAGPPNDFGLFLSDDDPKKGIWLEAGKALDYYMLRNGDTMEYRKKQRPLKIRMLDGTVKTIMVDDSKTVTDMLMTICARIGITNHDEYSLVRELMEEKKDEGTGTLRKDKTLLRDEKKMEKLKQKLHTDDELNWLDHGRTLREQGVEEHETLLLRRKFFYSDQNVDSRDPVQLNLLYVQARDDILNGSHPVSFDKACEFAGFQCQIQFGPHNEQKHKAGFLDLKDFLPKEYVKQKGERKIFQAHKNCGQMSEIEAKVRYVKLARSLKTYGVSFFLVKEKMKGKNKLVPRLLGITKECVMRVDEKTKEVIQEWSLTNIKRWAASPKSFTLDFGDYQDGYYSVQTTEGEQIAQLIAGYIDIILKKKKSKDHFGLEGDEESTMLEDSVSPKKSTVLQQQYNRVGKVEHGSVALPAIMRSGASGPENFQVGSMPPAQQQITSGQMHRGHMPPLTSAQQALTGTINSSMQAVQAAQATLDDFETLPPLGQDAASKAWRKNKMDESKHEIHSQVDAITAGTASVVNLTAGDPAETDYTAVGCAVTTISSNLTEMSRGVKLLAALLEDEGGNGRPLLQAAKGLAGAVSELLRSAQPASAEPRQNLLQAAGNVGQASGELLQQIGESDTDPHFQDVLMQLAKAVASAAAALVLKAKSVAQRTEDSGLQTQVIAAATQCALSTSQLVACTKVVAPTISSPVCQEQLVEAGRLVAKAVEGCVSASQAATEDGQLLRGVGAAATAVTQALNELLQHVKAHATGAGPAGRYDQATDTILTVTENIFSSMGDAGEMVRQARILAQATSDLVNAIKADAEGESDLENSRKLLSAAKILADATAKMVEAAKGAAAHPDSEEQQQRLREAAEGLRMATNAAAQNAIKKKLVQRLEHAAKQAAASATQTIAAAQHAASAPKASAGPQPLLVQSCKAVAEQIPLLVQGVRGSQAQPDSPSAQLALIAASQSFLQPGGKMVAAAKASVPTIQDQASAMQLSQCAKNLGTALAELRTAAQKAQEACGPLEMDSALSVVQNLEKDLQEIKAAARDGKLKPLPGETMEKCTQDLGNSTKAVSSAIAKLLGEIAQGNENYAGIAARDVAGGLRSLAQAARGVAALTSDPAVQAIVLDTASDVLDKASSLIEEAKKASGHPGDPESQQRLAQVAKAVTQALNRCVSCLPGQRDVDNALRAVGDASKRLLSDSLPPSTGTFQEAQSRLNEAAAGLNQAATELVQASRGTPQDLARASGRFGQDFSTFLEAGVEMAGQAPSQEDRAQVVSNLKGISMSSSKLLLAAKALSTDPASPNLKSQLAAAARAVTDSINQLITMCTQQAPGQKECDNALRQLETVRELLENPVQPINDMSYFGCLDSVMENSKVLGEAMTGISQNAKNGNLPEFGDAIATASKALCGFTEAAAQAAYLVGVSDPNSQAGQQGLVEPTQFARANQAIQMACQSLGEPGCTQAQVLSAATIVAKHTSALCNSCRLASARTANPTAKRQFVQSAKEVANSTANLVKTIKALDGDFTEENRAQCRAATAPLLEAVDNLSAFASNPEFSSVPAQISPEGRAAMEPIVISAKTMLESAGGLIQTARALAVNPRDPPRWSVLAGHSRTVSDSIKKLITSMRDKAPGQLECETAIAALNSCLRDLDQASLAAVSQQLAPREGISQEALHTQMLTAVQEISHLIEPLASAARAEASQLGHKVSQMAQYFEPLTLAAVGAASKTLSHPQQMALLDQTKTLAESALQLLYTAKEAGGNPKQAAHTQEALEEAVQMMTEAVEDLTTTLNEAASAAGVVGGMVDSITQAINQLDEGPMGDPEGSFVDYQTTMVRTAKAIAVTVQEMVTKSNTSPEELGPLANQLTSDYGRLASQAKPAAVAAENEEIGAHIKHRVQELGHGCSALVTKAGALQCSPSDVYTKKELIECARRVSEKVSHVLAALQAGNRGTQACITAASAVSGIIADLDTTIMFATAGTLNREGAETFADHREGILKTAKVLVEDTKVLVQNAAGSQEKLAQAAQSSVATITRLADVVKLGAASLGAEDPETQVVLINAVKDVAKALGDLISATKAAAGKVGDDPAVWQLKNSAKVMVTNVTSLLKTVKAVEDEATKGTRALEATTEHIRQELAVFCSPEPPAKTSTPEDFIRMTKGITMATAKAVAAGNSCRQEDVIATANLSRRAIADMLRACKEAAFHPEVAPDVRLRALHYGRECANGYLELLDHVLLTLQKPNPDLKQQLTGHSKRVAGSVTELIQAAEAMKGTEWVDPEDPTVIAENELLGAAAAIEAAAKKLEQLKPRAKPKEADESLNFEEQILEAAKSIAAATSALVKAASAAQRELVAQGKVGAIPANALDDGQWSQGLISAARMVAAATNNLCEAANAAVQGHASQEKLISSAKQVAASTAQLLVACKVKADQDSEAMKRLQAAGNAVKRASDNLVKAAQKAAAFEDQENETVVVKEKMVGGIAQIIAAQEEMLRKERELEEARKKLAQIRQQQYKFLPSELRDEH
UniProt Q3UDE2: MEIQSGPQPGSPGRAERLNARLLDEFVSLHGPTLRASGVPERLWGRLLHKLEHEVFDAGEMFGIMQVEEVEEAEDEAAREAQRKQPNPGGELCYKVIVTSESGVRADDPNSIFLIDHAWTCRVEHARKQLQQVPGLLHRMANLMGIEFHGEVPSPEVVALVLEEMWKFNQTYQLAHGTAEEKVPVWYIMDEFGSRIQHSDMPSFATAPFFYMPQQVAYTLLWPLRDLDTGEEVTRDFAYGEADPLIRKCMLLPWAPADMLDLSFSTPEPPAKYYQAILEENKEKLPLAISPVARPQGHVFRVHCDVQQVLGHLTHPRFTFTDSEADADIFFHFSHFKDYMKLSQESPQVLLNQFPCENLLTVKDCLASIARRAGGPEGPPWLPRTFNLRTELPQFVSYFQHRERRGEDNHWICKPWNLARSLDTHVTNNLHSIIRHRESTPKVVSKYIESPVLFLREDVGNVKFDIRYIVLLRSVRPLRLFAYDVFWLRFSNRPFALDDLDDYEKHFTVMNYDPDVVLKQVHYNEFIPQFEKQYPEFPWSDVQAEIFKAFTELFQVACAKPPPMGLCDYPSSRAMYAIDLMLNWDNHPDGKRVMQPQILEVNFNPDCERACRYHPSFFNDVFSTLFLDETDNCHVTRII
UniProt P57722: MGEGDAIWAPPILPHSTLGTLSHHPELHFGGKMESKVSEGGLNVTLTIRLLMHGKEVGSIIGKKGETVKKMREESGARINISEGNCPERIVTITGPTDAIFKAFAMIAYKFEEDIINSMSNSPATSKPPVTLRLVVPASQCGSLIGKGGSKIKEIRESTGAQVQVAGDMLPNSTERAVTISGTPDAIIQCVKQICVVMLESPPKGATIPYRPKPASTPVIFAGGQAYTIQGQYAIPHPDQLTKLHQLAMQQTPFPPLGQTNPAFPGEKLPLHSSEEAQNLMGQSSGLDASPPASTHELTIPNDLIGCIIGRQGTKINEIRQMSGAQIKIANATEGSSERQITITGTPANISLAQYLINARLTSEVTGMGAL
UniProt P99024: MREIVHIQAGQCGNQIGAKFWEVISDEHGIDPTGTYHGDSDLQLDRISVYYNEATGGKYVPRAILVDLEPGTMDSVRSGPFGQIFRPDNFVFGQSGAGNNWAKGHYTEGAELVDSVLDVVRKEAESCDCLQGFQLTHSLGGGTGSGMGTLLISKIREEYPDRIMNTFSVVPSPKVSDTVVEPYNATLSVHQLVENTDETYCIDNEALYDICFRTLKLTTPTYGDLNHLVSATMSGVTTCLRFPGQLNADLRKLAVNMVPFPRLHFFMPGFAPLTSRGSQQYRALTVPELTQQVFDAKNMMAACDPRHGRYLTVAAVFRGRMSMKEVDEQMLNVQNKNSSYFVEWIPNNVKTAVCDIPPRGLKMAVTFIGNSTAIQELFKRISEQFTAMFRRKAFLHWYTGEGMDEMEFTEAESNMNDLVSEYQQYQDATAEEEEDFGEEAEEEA
UniProt P04386: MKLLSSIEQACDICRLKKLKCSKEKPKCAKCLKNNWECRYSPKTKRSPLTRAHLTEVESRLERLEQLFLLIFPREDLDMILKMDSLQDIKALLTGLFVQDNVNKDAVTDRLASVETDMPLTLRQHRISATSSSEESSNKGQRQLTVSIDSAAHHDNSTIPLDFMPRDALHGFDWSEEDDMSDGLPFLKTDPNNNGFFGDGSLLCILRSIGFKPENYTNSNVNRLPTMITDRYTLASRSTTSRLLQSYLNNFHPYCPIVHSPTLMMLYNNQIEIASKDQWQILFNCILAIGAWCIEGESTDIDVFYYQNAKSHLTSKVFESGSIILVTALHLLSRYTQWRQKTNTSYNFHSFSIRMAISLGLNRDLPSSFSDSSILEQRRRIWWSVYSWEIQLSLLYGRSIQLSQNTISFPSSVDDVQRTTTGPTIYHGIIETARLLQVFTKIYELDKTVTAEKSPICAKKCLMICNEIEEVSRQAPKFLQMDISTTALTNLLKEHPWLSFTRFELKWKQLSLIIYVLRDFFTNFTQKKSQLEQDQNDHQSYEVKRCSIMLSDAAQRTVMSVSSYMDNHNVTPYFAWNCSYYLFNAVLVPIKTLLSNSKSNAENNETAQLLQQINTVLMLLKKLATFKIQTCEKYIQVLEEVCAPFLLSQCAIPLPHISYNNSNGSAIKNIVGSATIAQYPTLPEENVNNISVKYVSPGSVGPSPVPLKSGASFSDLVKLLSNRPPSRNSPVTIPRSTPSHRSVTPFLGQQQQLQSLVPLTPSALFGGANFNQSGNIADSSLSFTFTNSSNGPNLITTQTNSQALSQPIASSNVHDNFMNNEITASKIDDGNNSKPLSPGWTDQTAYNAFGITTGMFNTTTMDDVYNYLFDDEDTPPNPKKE

Measured: binding

Rai17 (from UniProt P04386 1-147; Q6P1E1 1-1072)
binds: [1] | [2]

Sf1 (from UniProt P04386 1-147; Q64213 2-653)
not listed: [1] | [2]
binds: all other assays above

Cugbp1 (from UniProt P04386 1-147; P28659 1-486)
binds: [4] | [9]
